From patent publication US20150322474A1 (UNIVERSITY OF THE UNIVERSITY OF ABERDEEN, published 2015) come the findings set out here.

Results are given in words; binding and its absence hold for the method and conditions named. Binding seen in cells or lysates may run through a third protein. Some results given as binding are weak or reduced against the parent protein; the word gives no strength.

The target of this assay is T1, … peptide substrate.
T1 sequence (peptide): VGAGIGFPAYDG
Briefly: LC-MS of the macrocyclization reaction; covalent acyl-enzyme intermediate.

B1: PatGmac wild-type (macrocyclase domain of PatG, residues 492-851) (enzyme)
chain: GEDEIESAGVSASEVESSATKQKVALHPHDLDERIPGLADLHNQTLGDPQITIVIIDGDPDYTLSCFEGAEVSKVFPYWHEPAEPITPEDYAAFQSIRDQGLKGKEKEEALEAVIPDTKDRIVLNDHACHVTSTIVGQEHSPVFGIAPNCRVINMPQDAVIRGNYDDVMSPLNLARAIDLALELGANIIHCAFCRPTQTSEGEEILVQAIKKCQDNNVLIVSPTGNNSNESWCLPAVLPGTLAVGAAKVDGTPCHFSNWGGNNTKEGILAPGEEILGAQPCTEEPVRLTGTSMAAPVMTGISALLMSLQVQQGKPVDAEAVRTALLKTAIPCDPEVVEEPERCLRGFVNIPGAMKVLFGQ
As to B1, the binding entry was “binds”.
